Source: PubChem BioAssay AID2685 (National Center for Advancing Translational Sciences (NCATS), 2010)
The list shows a part of the results. These are further read-outs of the screen, such as a control signal, another cell line or another target. No call is given for them. Most of these compounds were active or inconclusive in the main read-out, so they are no random draw. Potencies come from curve fits of mixed quality, noted in brackets.

Assay: qHTS Assay for Lipid Storage Modulators in Drosophila S3 Cells;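 as to cell number change: cells counted by Cell Tracker Red CMTPX staining in the red channel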
Conditions: BODIPY lipid droplet fluorescence, 18-24 h; for cell number change: measured here: cell count max response, cells fed with added oleic acid
How it was run: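 Drosophila S3 cells loaded with oleic acid (400 uM, as added) and compounds at several concentrations; lipid droplets imaged by 488-nm laser-scanning cytometry, 500–530 nm intensity and object ratio to cell channel. Percent activity normalized to 20 uM Triacsin C.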

[1] = measured here: cell number channel AC50, cells fed with added oleic acid
[2] = measured here: lipid fluorescence (Fed channel) AC50, cells fed with added oleic acid

Row | SMILES | cell number change [%] | AC50 [1] | AC50 [2]
1 | CCOC(=O)c1cc(C)nc(S(C)(=O)=O)c1C#N | -68.6 | 18.4 µM [falling, single point] | –
2 | CC(=O)CCS(=O)(=O)c1ccc(C)c(C)c1 | 5.24 | – | 20.6 µM [falling, single point]
3 | Cn1cc(CN(Cc2ccccn2)C[C@@H]2CCC(=O)N2)c(-c2ccccc2F)n1 | -17.2 | 0.00461 µM [falling, full curve, poor fit] | 0.82 µM [falling, full curve, poor fit]
4 | COc1ccc(OCCN2C(=O)c3ccccc3C2=O)c([N+](=O)[O-])c1 | -24.6 | – | –
5 | COc1ccc(C(=O)NCC(=O)OCc2ccccc2F)cc1 | 52 | – | 0.13 µM [falling, full curve, poor fit]
6 | COc1ccccc1CCC(=O)Nc1cccc(S(=O)(=O)N2CCCCCC2)c1 | 33 | 2.31 µM [rising, full curve] | 2.31 µM [rising, partial curve]
7 | CCOc1ccccc1NC(=S)N1CCC(NC(=O)c2ccco2)CC1 | -34.1 | 13 µM [falling, single point] | 29.1 µM [falling, single point]
8 | COC(=O)CSC1=C(C#N)C(c2ccc3c(c2)OCO3)C2=C(CCCC2=O)N1 (stereo unspecified) | – | 0.731 µM [rising, single point] | –
9 | COc1cc(OC)cc(C(=O)Nn2cc(C(=O)Nc3ccc(F)cc3F)c3ccccc3c2=O)c1 | 9.68 | – | 18.4 µM [rising, single point]
10 | O=C(NNC1=NCCC1)c1cccc(S(=O)(=O)N2CCCC2)c1 | 4.7 | – | 6.51 µM [rising, single point]
11 | CNC(=S)N(CCc1c(C)[nH]c2ccc(F)cc12)Cc1ccco1 | 1.53 | – | 6.51 µM [rising, single point]
12 | COc1ccc(C2CC(c3ccccc3OC(C)=O)=NN2C(=O)/C=C/c2ccccc2)cc1 (stereo unspecified) | -40.4 | 32.6 µM [falling, single point] | 29.1 µM [falling, single point]
13 | CN(c1nc(-c2ccccc2)cs1)C1CCS(=O)(=O)C1 (stereo unspecified) | 7.8 | – | 11.6 µM [rising, partial curve]
14 | Cc1cc(C(=O)CSc2nnc(-c3cccnc3)n2-c2ccccc2)c(C)n1CC1CCCO1 (stereo unspecified) | – | – | 5.8 µM [rising, partial curve]
15 | O=C(C1CCN(S(=O)(=O)c2cccs2)CC1)N1CCCCCC1 | 7.47 | 0.0058 µM [rising, full curve, poor fit] | 0.366 µM [rising, full curve, poor fit]
16 | CCN(C(=O)c1cc2c(=O)n3cccc(C)c3nc2s1)C1CCCCC1 | 17.6 | – | –
17 | Nc1nonc1C(=O)NCCN=Cc1cc(Cc2ccccc2)cc(Br)c1O | -53.7 | 18.4 µM [falling, single point] | 29.1 µM [falling, single point]
18 | COc1ccc(NC(=O)c2ccccc2Oc2ccccc2)cc1 | 39.8 | – | 29.1 µM [rising, partial curve, poor fit]
19 | O=C1C2=C(C(c3ccccc3)=NCCN2)C(c2cccc([N+](=O)[O-])c2)N1c1ccccc1 (stereo unspecified) | -14.9 | – | 0.82 µM [falling, full curve, poor fit]

Row | SMILES | cell number change [%] | AC50 [1] | AC50 [2]
20 | Cc1ccc(C)c(NC(=O)CNS(=O)(=O)c2ccccc2)c1 | – | 1.16 µM [rising, partial curve] | 0.291 µM [rising, partial curve, poor fit]
21 | CCc1ccc2[nH]c(=O)c(CN(CCCN3CCOCC3)C(=O)Nc3ccccc3)cc2c1 | 26.5 | – | 9.2 µM [rising, partial curve]
22 | COc1ccc(N(CCC#N)C(=O)/C(C#N)=C\c2cccs2)cc1 | 15 | – | –
23 | COc1ccc(Cl)cc1NC(=O)CN(C)C(=O)c1cn2ccccc2n1 | -8.65 | – | 0.411 µM [falling, full curve, poor fit]
24 | COc1cc2c(cc1OC)CN(C(=O)c1ccc(N3CCCC3)c([N+](=O)[O-])c1)CC2 | 17 | – | 3.66 µM [rising, single point]
25 | CS(=O)(=O)N(CC(=O)N1CCc2ccccc2C1)Cc1ccc(Cl)cc1 | 43 | 16.4 µM [rising, partial curve, poor fit] | –
26 | CCOC(=O)C1CCCN(S(=O)(=O)c2cc(Br)cc3c2N(C(C)=O)CC3)C1 (stereo unspecified) | -21 | – | 29.1 µM [falling, single point]
27 | CCOc1ccc(NC(=O)CCN2CCN(c3ccccc3F)CC2)cc1 | 108 | 10.3 µM [rising, partial curve] | 2.31 µM [rising, partial curve]
28 | CCOC(=O)C1CCCN(CCC(=O)Nc2c(C(=O)OC)[nH]c3cc(OC)ccc23)C1 (stereo unspecified) | 0.476 | – | –
29 | COc1cc(NC(=O)CN2C(=O)C(=O)N(CC(C)C)C2=O)cc(OC)c1 | 17.7 | – | –
30 | CC1CCN(C(=O)CN2C(=O)COc3ccc(Cl)cc32)CC1 | 6.41 | – | –
31 | CC1CN(CCCCN2C(=O)c3ccccc3C2=O)CC(C)O1 (stereo unspecified) | 22 | – | –
32 | O=c1cc(-c2c(O)c3ccccc3n(Cc3ccccc3)c2=O)[nH][nH]1 | 17 | 0.651 µM [falling, full curve, poor fit] | –
33 | O=C1C2C3C=CC(C3)C2C(=O)N1Cc1ccccc1 (stereo unspecified) | 19.5 | – | 0.00461 µM [falling, full curve, poor fit]
34 | NC(=O)CC(NC(=O)c1cccc(Br)c1)c1ccc(NC2CCC2)c([N+](=O)[O-])c1 (stereo unspecified) | 17.8 | 0.731 µM [rising, full curve, poor fit] | –
35 | O=S(=O)(c1ccc(NC(=S)NCCC(c2ccccc2)c2ccccc2)cc1)N1CCOCC1 | 83.3 | 9.2 µM [rising, partial curve] | 29.1 µM [falling, single point]
36 | CCCCn1c(N)c(-c2nc3ccccc3s2)c2c([N+](=O)[O-])nn(C)c(=O)c21 | – | – | 0.411 µM [rising, partial curve, poor fit]
37 | Cc1ccc(-c2nnn3c2nc(NCCc2ccc(S(N)(=O)=O)cc2)c2ccccc23)cc1 | -2.51 | – | –

Grouped by structure: the compounds so far with a Cl atom.
Row | SMILES | cell number change [%] | AC50 [1] | AC50 [2]
23 | COc1ccc(Cl)cc1NC(=O)CN(C)C(=O)c1cn2ccccc2n1 | -8.65 | – | 0.411 µM [falling, full curve, poor fit]
25 | CS(=O)(=O)N(CC(=O)N1CCc2ccccc2C1)Cc1ccc(Cl)cc1 | 43 | 16.4 µM [rising, partial curve, poor fit] | –
30 | CC1CCN(C(=O)CN2C(=O)COc3ccc(Cl)cc32)CC1 | 6.41 | – | –
